US20080267882A1 (Stanford University, priority 2007, published 2008)
Some peptides are written in HELM: one residue between dots, names in brackets for other building blocks, links after the first $.

Assay: general procedure: peptide synthesis; TSTU/DIPEA
Details: conjugation step
In the case of Boc-NH-mini-PEG-CO-E{E[c(RGDyK)]2}2, the conjugation yield was 60% yield.
Substance NOTA-E[c(RGDyK)]2 has a conjugation yield of 52%.
With NOTA-E{E[c(RGDyK)]2}2 the conjugation yield was 43%.
In the case of NOTA-c(RGDyK), the conjugation yield was 61%.

Same assay, conditions: conjugation step, overall
With E(E{E[c(RGDyK)]2}2)2 the conjugation yield was 46% overall yield.
E{E[c(RGDyK)]2}2 gave a conjugation yield of 58% overall yield.
Substance “PEPTIDE1{[miniPEG].[Glu]}|PEPTIDE2{R.G.D.[dY].K}|PEPTIDE3{R.G.D.[dY].K}$PEPTIDE2,PEPTIDE2,1:R1-5:R2|PEPTIDE3,PEPTIDE3,1:R1-5:R2|PEPTIDE1,PEPTIDE2,2:R2-5:R3|PEPTIDE1,PEPTIDE3,2:R3-5:R3$$$V2.0” has a conjugation yield of 64%.

Same assay, conditions: late stage modification step
For FB-NH-mini-PEG-E[c(RGDyK)]2, the step yield was 69%.
With “PEPTIDE1{[FB].[miniPEG].[Glu].[Glu]}|PEPTIDE2{[Glu]}|PEPTIDE3{R.G.D.[dY].K}|PEPTIDE4{R.G.D.[dY].K}|PEPTIDE5{R.G.D.[dY].K}|PEPTIDE6{R.G.D.[dY].K}$PEPTIDE3,PEPTIDE3,1:R1-5:R2|PEPTIDE4,PEPTIDE4,1:R1-5:R2|PEPTIDE5,PEPTIDE5,1:R1-5:R2|PEPTIDE6,PEPTIDE6,1:R1-5:R2|PEPTIDE1,PEPTIDE2,3:R3-1:R1|PEPTIDE1,PEPTIDE3,4:R2-5:R3|PEPTIDE1,PEPTIDE4,4:R3-5:R3|PEPTIDE2,PEPTIDE5,1:R2-5:R3|PEPTIDE2,PEPTIDE6,1:R3-5:R3$$$V2.0” the step yield was 65% yield.
“PEPTIDE1{[miniPEG].[Glu].[Glu]}|PEPTIDE2{[Glu]}|PEPTIDE3{R.G.D.[dY].K}|PEPTIDE4{R.G.D.[dY].K}|PEPTIDE5{R.G.D.[dY].K}|PEPTIDE6{R.G.D.[dY].K}$PEPTIDE3,PEPTIDE3,1:R1-5:R2|PEPTIDE4,PEPTIDE4,1:R1-5:R2|PEPTIDE5,PEPTIDE5,1:R1-5:R2|PEPTIDE6,PEPTIDE6,1:R1-5:R2|PEPTIDE1,PEPTIDE2,2:R3-1:R1|PEPTIDE1,PEPTIDE3,3:R2-5:R3|PEPTIDE1,PEPTIDE4,3:R3-5:R3|PEPTIDE2,PEPTIDE5,1:R2-5:R3|PEPTIDE2,PEPTIDE6,1:R3-5:R3$$$V2.0” showed a step yield of 90%.
